Laboratory results from the supplement of paper PMC12819154, “High-throughput peptide-centric local stability assay extends protein–ligand identification to membrane proteins, tissues and bacteria” (Nature Structural & Molecular Biology, 2025).
This is one part of the list. Small differences around the control level are noise.

Sequences of proteins named here, by UniProt entry; tags and fusion partners are left off. A change or cut given only in a name is not applied to a line headed by its entry.
UniProt Q9D8Y1: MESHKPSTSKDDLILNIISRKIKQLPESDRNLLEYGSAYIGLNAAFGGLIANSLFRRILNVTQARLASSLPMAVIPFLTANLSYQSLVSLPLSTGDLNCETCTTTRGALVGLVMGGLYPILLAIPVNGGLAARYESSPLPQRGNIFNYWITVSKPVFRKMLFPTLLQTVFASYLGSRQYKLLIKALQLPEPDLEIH
UniProt Q9D6Y9: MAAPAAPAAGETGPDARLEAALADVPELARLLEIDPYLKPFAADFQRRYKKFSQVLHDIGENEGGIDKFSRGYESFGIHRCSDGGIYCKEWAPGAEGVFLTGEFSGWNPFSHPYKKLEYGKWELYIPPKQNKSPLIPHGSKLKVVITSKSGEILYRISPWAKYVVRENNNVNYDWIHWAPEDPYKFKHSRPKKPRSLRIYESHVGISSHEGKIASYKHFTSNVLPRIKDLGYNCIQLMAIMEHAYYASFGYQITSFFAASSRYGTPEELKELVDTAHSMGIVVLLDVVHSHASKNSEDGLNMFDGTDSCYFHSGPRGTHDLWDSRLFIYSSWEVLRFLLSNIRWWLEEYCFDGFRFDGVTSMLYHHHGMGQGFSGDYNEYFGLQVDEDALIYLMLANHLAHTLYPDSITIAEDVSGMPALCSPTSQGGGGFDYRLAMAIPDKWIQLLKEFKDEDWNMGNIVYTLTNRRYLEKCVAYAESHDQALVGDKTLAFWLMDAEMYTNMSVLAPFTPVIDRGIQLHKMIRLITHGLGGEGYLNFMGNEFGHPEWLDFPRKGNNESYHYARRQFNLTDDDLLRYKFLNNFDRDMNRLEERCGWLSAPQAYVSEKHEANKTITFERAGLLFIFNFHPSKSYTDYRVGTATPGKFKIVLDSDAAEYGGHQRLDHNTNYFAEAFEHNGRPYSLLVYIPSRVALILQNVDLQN
UniProt Q9D967: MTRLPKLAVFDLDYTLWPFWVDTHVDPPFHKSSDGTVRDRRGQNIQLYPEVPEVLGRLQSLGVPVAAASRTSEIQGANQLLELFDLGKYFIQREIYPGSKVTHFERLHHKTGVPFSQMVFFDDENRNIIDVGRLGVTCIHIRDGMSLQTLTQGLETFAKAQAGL
UniProt Q9D3S3: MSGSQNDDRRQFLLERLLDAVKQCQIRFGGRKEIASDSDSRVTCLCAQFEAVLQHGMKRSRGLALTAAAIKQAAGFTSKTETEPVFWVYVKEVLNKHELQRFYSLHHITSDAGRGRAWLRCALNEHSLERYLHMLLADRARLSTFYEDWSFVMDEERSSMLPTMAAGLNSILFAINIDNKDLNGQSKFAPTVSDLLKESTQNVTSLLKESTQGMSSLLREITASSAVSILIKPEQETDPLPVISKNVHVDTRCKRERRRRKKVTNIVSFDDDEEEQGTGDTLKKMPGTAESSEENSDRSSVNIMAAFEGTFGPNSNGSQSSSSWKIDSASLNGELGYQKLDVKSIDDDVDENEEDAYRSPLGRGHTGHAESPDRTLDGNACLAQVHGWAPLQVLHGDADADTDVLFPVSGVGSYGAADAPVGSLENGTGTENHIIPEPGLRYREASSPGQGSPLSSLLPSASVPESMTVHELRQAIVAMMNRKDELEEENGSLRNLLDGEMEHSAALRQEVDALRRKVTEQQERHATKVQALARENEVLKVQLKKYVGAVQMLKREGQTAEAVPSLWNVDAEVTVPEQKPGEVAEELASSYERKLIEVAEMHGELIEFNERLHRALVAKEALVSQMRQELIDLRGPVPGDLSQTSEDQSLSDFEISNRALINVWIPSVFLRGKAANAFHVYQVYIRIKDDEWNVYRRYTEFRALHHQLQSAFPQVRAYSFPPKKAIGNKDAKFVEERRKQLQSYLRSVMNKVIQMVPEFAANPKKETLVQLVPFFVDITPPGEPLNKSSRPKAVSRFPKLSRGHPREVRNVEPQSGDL

What follows are targets tested with CN[C@@H]1C[C@H]2O[C@@](C)([C@@H]1OC)n1c3ccccc3c3c4c(c5c6ccccc6n2c5c31)C(=O)NC4 [staurosporine] (assay: log2 fold change of tryptic peptide abundance, ligand vs vehicle (limited proteolysis) (log2 ratio); higher = more trypsin-susceptible (destabilized)). Details: ligand concentration: 20 uM; sample: mouse liver crude lysate; replicate design: treated separately.

Target	log2 fold change
UniProt Q9D8Y1 (peptide sequence: MESHKPSTSKDDLILNIISR, peptide start residue: 1)	-0.341
UniProt Q9D6Y9 (peptide sequence: CGWLSAPQAYVSEKHEANK, peptide start residue: 594)	-0.687
UniProt Q9D967 (peptide sequence: LQSLGVPVAAASR, peptide start residue: 58)	-0.195
UniProt Q9D3S3 (peptide sequence: EALVSQMR, peptide start residue: 620)	-0.181
